Reference: PubChem BioAssay AID652054 (National Center for Advancing Translational Sciences (NCATS), 2013)
About 9,100 (2.5%) of roughly 360,000 compounds were called active. Inconclusive means that the source gave no clear call. Such entries were picked first, then a sample of the others. Rule as the data show it: active = max response below about -50%; inconclusive = no clear call, values can overlap the other calls; inactive = above that. The source holds several records for some structures; these can differ, active in one and inactive in another.

Amino acid sequences for entries named in this document (tags omitted).
UniProt P35462, whole entry, looked up: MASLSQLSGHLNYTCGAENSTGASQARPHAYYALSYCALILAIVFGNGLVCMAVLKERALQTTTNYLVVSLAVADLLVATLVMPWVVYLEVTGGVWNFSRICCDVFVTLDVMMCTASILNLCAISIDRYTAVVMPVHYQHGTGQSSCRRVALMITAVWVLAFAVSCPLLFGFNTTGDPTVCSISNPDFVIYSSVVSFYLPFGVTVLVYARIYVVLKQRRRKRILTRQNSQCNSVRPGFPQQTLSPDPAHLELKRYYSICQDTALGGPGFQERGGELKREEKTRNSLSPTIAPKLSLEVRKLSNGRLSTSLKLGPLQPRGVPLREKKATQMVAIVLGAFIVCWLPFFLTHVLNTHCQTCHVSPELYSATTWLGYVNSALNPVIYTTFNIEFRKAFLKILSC

Molecular target: D(3) dopamine receptor (Homo sapiens) (UniProt P35462)
Assay: qHTS of D3 Dopamine Receptor Antagonist: qHTS
Conditions: D3R cells, DiscoveRx beta-arrestin luminescence, antagonist mode; stronger effect = lower value
In short: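 Cells expressing the human receptor were seeded at 1500 cells/well, incubated overnight at 37 degrees C in 5% CO2, then exposed to library compounds with dopamine controls for 90 minutes at 37 degrees C before luminescent detection.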
% is scaled to controls: 0 for no effect and ±100 for the full control effect.

Row | Compound | max response, negative = inhibition
1 | COc1cccc(N2C(=O)CC(N3CCN(S(=O)(=O)c4ccccc4[N+](=O)[O-])CC3)C2=O)c1 (stereo unspecified) | inactive: 8.81%
2 | Cc1ccc(-c2csc(N(CCCN(C)C)C(=O)c3ccco3)n2)cc1 | inconclusive: -32.1%
3 | Cc1oc(-c2ccccc2F)nc1CS(=O)(=O)CC(=O)NC(C)CCc1ccccc1 (stereo unspecified) | inconclusive: -32.8%
4 | O=[N+]([O-])c1cc(-c2cnc3ccccc3n2)ccc1Oc1ccc(Cl)cc1 | inconclusive: -41.9%
5 | O=C(NCc1ccc2c(c1)OCO2)c1cc(-c2ccccc2Cl)on1 | active: -58.8%
6 | CCCCNC(=O)C1(C)CCCCN1Cc1ccccc1-c1ccccc1 (stereo unspecified) | inconclusive: -46.7%
7 | NC(=S)N=Nc1c(O)[nH]c2ccc(F)cc12 | inactive: -20.3%
8 | CC(C)(C)c1ccc(C(=O)NC(=S)N2CCCC2)cc1 | inactive: -16%
9 | CC(=O)C(Sc1nc(NC(C)(C)C)nc(N(C)C)n1)C(C)=O | inconclusive: -30.6%
10 | COc1ccc(CN2CCN(Cc3c[nH]c4ccccc34)CC2)cc1OC | active: -51.7%
11 | Cc1nn(CCc2n[nH]c(=S)n2-c2ccc(F)cc2)c(C)c1[N+](=O)[O-] | inactive: 10.5%
12 | O=c1[nH]c(CS(=O)(=O)c2ccccc2)nc2ccccc12 | inconclusive: -39.7%
13 | O=[N+]([O-])c1ccc(O)c(C=Nc2ccc3c(c2)OCO3)c1 | active: -68.3%
14 | O=c1cc2oc3cc(O)c(O)cc3c(-c3ccccc3O)c-2cc1O | inactive: -13%
16 | COc1ccc2sc(N(CCN(C)C)C(=O)/C=C/c3cccs3)nc2c1 | active: -86%
17 | O=C(CN1c2ccccc2Sc2ccccc21)N/N=C/c1ccc([N+](=O)[O-])cc1 | inconclusive: -35.1%
18 | O=C(COC(=O)Cc1c[nH]c2ccccc12)Nc1cccc2ccccc12 | inconclusive: -35.1%
19 | COc1ccc([C@H]2CN(Cc3ccccc3)C(=O)[C@@H]2CC(=O)Nc2ccccc2)cc1 | inconclusive: -31.8%
20 | Nc1cc(C(=O)N2CCN(c3cccc(Cl)c3)CC2)ccc1N1CC2CC(C1)c1cccc(=O)n1C2 (stereo unspecified) | inactive: 6.01%
21 | COCCNC(=O)/C(C#N)=C/c1cccc(NC(=O)c2ccccc2Cl)c1 | inconclusive: -40.2%
22 | O=C(CC1SC(=O)N(c2ccccc2)C1=O)Nc1ccccc1 (stereo unspecified) | inconclusive: -39.3%

Row | Compound | max response, negative = inhibition
23 | O=S(=O)(Nc1ccc(O)c2ccccc12)c1ccc(F)cc1 | inconclusive: -41.7%
24 | CCCOc1cccc(C(=O)NC(=S)Nc2cccc(NC(=O)c3ccccc3Cl)c2)c1 | inconclusive: -36.8%
25 | Cc1cc(C)n(C(CC(=O)N2CCc3ccccc3C2)C(=O)O)n1 (stereo unspecified) | inconclusive: -35.4%
26 | CCc1ccc(S(=O)(=O)N2c3ccc(C)cc3C3CN(C)CCC32)cc1 (stereo unspecified) | inconclusive: -45.7%
27 | Cc1nc2c(OCc3ccc(Cl)cc3)cccn2c1N(C)C(=O)CCC1CCCC1 | inactive: 15.2%
28 | CCOC(=O)CCNCc1ccc(F)cc1 | inconclusive: -38%
29 | COc1cc(C=O)ccc1OCCCOc1ccccc1C(=O)O | active: -54.7%
30 | CCCOc1ccc(-c2nc(N3CCN(CC)CC3)c3ccccc3n2)cc1 | inconclusive: -37%
31 | COc1cc(/C=N/NC(=O)CCN2CCN(c3ccccc3)CC2)cc(OC)c1OC | inconclusive: -39.3%
32 | Cc1[nH]c2ccccc2c1C(=O)COC(=O)c1ccc([N+](=O)[O-])s1 | inconclusive: -41.9%
33 | Cc1ccc(C(=O)O/N=C(\N)c2ccccn2)cc1C | inconclusive: -45.3%
34 | CN(C(=O)c1ccc(NC(=O)Cc2cccc(NC(=O)C3CCN(C(=O)CCc4ccccc4)CC3)c2)cc1)C1CCCC1 | inconclusive: -42.4%
35 | COc1ccc(CN2CCNC(=O)C2CC(=O)NC2CCCCCC2)c(F)c1 (stereo unspecified) | active: -69.2%
36 | CCCn1c(Cc2ccccc2)n[nH]c1=S | inconclusive: -34.1%
37 | O=C(Cn1ccc2ccccc2c1=O)N1CCN(c2cccc(Cl)c2)CC1 | inconclusive: -36.3%
38 | COc1ccc2[nH]c3c(=O)n(CCCC(=O)NC4CCCCC4C)c(=S)[nH]c3c2c1 (stereo unspecified) | inconclusive: -31.7%
39 | CC1CC2(CC(C)(C(=O)CSc3n[nH]c(-c4ccccc4Cl)n3)OC2=O)C(=O)O1 (stereo unspecified) | inconclusive: -42.7%
40 | CN(CC(=O)Nc1ccccc1Cl)C(=O)COC(=O)c1nc(Cl)c(Cl)c(Cl)c1Cl | active: -67.1%
41 | CC(=O)C1=C(c2ccccc2)NC(=O)NC1c1ccccc1OCC(=O)Nc1ccccc1 (stereo unspecified) | inactive: -2.08%
42 | Cc1ccc(Cn2ccc(NC(=O)c3cc(-c4ccccc4)on3)n2)cc1 | inactive: -8.87%
43 | CN(C)C(CNC(=O)CSc1nc2ccccc2c(=O)n1Cc1ccco1)c1ccccc1 (stereo unspecified) | inconclusive: -33.1%
44 | CC(=O)c1cc(C)ccc1OC(=O)CCN1C(=O)C2C3c4ccccc4C(c4ccccc43)C2C1=O (stereo unspecified) | inactive: 8.43%

Two neighbouring compounds out of the list so far:
Row | Compound | max response, negative = inhibition
9 | CC(=O)C(Sc1nc(NC(C)(C)C)nc(N(C)C)n1)C(C)=O | inconclusive: -30.6%
10 | COc1ccc(CN2CCN(Cc3c[nH]c4ccccc34)CC2)cc1OC | active: -51.7%

(continued)

Row | Compound | max response, negative = inhibition
45 | COCCNC(=O)C1(C)CCCN(C(=O)c2cc(F)cc(F)c2)C1 (stereo unspecified) | inactive: 7.03%
46 | O=C(NC1CCCC1)C(C1CC1)n1c(-c2cc3ccccc3[nH]2)nc2ccccc21 (stereo unspecified) | inconclusive: -44.5%
47 | COc1c(-c2ccc([N+](=O)[O-])cc2[N+](=O)[O-])c(=O)n(C)c(=O)n1C | inconclusive: -44.5%
48 | Cc1ccc(NC(=O)CSc2nnc(CN3CCOCC3)n2-c2ccccc2)cc1 | inconclusive: -38.6%
49 | O=C(Nc1ccc(Nc2ccccc2)cc1)c1ccccc1 | inconclusive: -30.5%
50 | O=S(=O)(NCc1ccccc1)c1ccc(S(=O)(=O)N(Cc2ccccn2)Cc2ccco2)cc1 | inactive: -9.93%
51 | Cc1[nH]n(-c2ccccc2)c(=O)c1C=Nc1cccc2cccnc12 | active: -86.8%
52 | Cc1occc1C(=O)NC1CCCCCC1 | inconclusive: -35.3%
53 | O=C(O)CCc1ccc(-c2cccs2)o1 | inactive: 22.7%
54 | C[C@@]12CCC3[C@@](CCC4[C@@]3(C)CCC[C@@]4(C)C(=O)N3CCOCC3)(CC1=O)C2 (stereo partly specified) | inactive: 5.08%
55 | c1ccc(Sc2nc(N3CCCCC3)nc(N3CCCCC3)n2)nc1 | inconclusive: -34.2%
56 | COc1cccc(-c2cnc3c(NC=O)cc(-c4cccc(NC(C)=O)c4)cn23)c1 | inactive: 67.1%
57 | Cc1ccc(-n2nc3c(c2NC(=O)c2cccs2)CS(=O)(=O)C3)cc1C | active: -65.5%
58 | COc1ccc(N(S(=O)(=O)c2ccccc2)S(=O)(=O)c2ccccc2)c(N)c1 | inactive: 0%
59 | c1ccc(-c2nn3c(C4CCCCC4)nnc3s2)nc1 | inconclusive: -31.6%
60 | CC1CCN(CCc2nc3cc(NC(=O)COc4ccc([N+](=O)[O-])cc4)ccc3n2C)CC1 | inconclusive: -39.4%
61 | OC(CNCCCN1CCCCC1)COc1ccccc1 (stereo unspecified) | inconclusive: -35.9%
62 | Cc1ccc(C(C(=O)NCc2ccco2)N(C(=O)Cn2nnc3ccccc32)c2ccccc2)o1 (stereo unspecified) | inconclusive: -36.7%
63 | S=C(S)OC1CC2CC1C1CCCC21 (stereo unspecified) | active: -80.5%
64 | Cn1c(=O)c2c(-c3ccccc3)n(-c3ccccc3N)cc2n(C)c1=O | inconclusive: -38.1%
65 | O=C(NNc1ccccn1)c1ccccc1CC[N+](=O)[O-] | inactive: -11.6%
66 | O=C(CCN1C(=O)C2C3C=CC(C3)C2C1=O)N1CCN(c2cccc(Cl)c2)CC1 (stereo unspecified) | inconclusive: -46.6%

Row | Compound | max response, negative = inhibition
67 | CN(CC(=O)Nc1c(Cl)cccc1Cl)C(=O)C1CCN(C(=O)Nc2ccccc2)CC1 | inactive: 0.636%
68 | N#CC1=C(SCC(=O)c2ccc(Cl)cc2)NC2=C(C(=O)CCC2)C1c1ccco1 (stereo unspecified) | inconclusive: -34.3%
69 | N#C/C(=C/c1ccc(N2CCCCC2)o1)C(=O)NCCc1c[nH]c2ccccc12 | inconclusive: -30.8%
70 | CCOc1ccc(C(=O)N/N=C/c2ccccc2[N+](=O)[O-])cc1 | inactive: -17.3%
71 | COc1ccc(NC(=O)c2cnc3sccn3c2=O)cc1 | active: -52.5%
72 | CCOC(=O)c1cc2c(=O)n3ccccc3nc2n(Cc2ccco2)c1=NC(=O)c1cccnc1 | inactive: -10.5%
73 | O=C(O)c1ccc(Nc2nc(-c3cccnc3)cs2)cc1O | inconclusive: -32.9%
74 | Fc1ccccc1NC(=S)N/N=C/c1ccccc1Br | active: -78.6%
75 | O=C(c1ccc([N+](=O)[O-])s1)N1CCN(c2ncccn2)CC1 | inconclusive: -31%
76 | CC1(C)Cc2c(C#N)c(N)sc(=S)c2CO1 | inconclusive: -47.7%
77 | O=C(NCc1ccccc1)NC1(C(=O)N2CCN(c3ccccc3)CC2)CCCCC1 | inconclusive: -41.3%
78 | O=C(COc1ccc(S(=O)(=O)NC2CCCC2)cc1)NCC1CCCO1 (stereo unspecified) | inconclusive: -32.2%
79 | Nc1nc2n(n1)C(c1cccs1)CC(c1ccccc1)N2 (stereo unspecified) | active: -63.9%
80 | CC[C@]12c3[nH]c4ccc(Cl)cc4c3CCN1C(=O)[C@@H](CC(=O)NCC13CC4CC(CC(C4)C1)C3)C[C@@H]2C(=O)N1CCN(C(=O)c2ccco2)CC1 | inconclusive: -47.5%
81 | CC(C)c1[nH]c(=O)c(C#N)c2c1COC(C)(C)C2 | inactive: 18.1%
82 | COc1ccccc1/C=c1\sc2nc(-c3ccco3)nn2c1=O | inconclusive: -49.7%
83 | CCOc1ccccc1N1CCN(Cc2cn[nH]c2-c2ccc(F)cc2)CC1 | active: -84.2%
84 | N#Cc1nc(-c2ccccc2Cl)oc1N1CCCCC1 | inactive: 0%
85 | O=C(CSc1nc2c([nH]c3ccccc32)c(=O)n1-c1ccccc1F)NCC1CCCO1 (stereo unspecified) | active: -77.6%
86 | CCN(CC)CCN1C(=O)C(O)=C(C(=O)c2cccs2)C1c1ccc(C)o1 (stereo unspecified) | inconclusive: -34.6%
